PubChem BioAssay AID493014 (National Center for Advancing Translational Sciences (NCATS), 2011)
Some of the results follow. These are further read-outs of the screen, such as a control signal, another cell line or another target. No call is given for them. Most of these compounds were active or inconclusive in the main read-out, so they are no random draw. Words in brackets tell the shape of the fitted curve; partial curves, single points and poor fits give uncertain potencies.

Assay: qHTS Assay to Find Inhibitors of Chronic Active B-Cell Receptor Signaling
Details: ABC-DLBCL IkBa-CBG/CBR reporter, luminescence ratio (green luciferase fused to IkBa over red control in TMD8 lymphoma cells), 4 h
In short: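 Doxycycline induced both beetle luciferases in TMD8 lymphoma cells; IKK-driven degradation limits the IkappaBalpha-fused green signal, while red luminescence normalises for cell number and nonspecific effects. Compounds tested up to 46 uM, 4 hrs.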

[1] = measured here: CBR red luminescence, cell number
[2] = measured here: IkBa-CBG green luminescence

SMILES: COc1cc(OC)cc(-c2nc3ccccc3c(=O)o2)c1
- AC50 [1]: 2.31 µM [falling, partial curve]

SMILES: N=C1SCC(=O)N1c1ncc(Cc2cccc(Cl)c2)s1
- AC50 [1]: 7.08 µM [rising, full curve]
- AC50 [2]: 22.4 µM [falling, partial curve]

SMILES: O=C1c2ccccc2/C(=C\C#Cc2ccccn2)N1c1ccccc1
- AC50 [1]: 16.4 µM [falling, single point]

SMILES: COc1nc(NCCC2=CCCCC2)nc(OC)n1
- AC50 [1]: 2.51 µM [rising, full curve, poor fit]

SMILES: CSc1ccccc1NC(=O)Nc1cccc(F)c1
- AC50 [1]: 2.82 µM [falling, partial curve, poor fit]

SMILES: CCOC(=S)SCC(=O)Nc1ncc(C)s1
- AC50 [1]: 6.31 µM [falling, partial curve]

SMILES: COc1cc(NC(=O)COc2cccc(OC)c2)cc(OC)c1
- AC50 [1]: 31.6 µM [falling, partial curve, poor fit]

SMILES: S=C(NCCc1ccccc1)N/N=C/c1ccccc1Cl
- AC50 [1]: 1.64 µM [rising, partial curve, poor fit]

SMILES: CC1CN(C(=O)COc2ccc3ccccc3c2Br)CC(C)O1 (configuration not stated)
- AC50 [1]: 2 µM [rising, partial curve]

SMILES: COc1ccc(-c2cc(C(=O)NC(C)C)no2)cc1
- AC50 [1]: 10.3 µM [falling, partial curve]

SMILES: CN(C(=O)c1ccccc1)c1nc2ccccc2s1
- AC50 [1]: 12.6 µM [falling, single point]

SMILES: Cc1cc(NCCCn2ccnc2)n2nc(-c3ccc(Cl)cc3)cc2n1
- AC50 [1]: 35.5 µM [falling, single point]

SMILES: CCOc1nc(Nc2ccccc2F)nc(OCC)n1
- AC50 [1]: 35.5 µM [falling, partial curve, poor fit]

SMILES: COc1ccc(N2C(=S)NC3N2C(=S)NC3(C)c2ccccc2)cc1 (configuration not stated)
- AC50 [1]: 35.5 µM [falling, single point]

SMILES: Cc1nn(CC(=O)Nc2ccccn2)c(=O)c2ccccc12
- AC50 [1]: 0.103 µM [rising, full curve, poor fit]

SMILES: CC(C)(CC(=O)NCc1ccc(Cl)cc1Cl)CC1=NS(=O)(=O)c2ccccc2N1
- AC50 [1]: 35.5 µM [falling, single point]

SMILES: CN(C)c1ccc(/C=C/c2nc3ccccc3c(=O)n2-c2ccc(C(=O)O)cc2)cc1
- AC50 [1]: 17.8 µM [falling, partial curve, poor fit]

SMILES: COc1cccc2cc(C(=O)NCCc3ccccc3)oc12
- AC50 [1]: 35.5 µM [falling, single point]

SMILES: O=C1c2ccccc2-c2onc3ccc(Oc4ccccc4)c1c23
- AC50 [1]: 1.84 µM [falling, full curve]

SMILES: Cc1ccc(-c2cc3onc(-c4ccccc4)c3c(=O)n2C)cc1
- AC50 [1]: 0.0517 µM [falling, full curve]

SMILES: CN(CC(=O)Nc1ccccc1C(F)(F)F)C(=O)c1ccccc1Sc1ccccc1C#N
- AC50 [2]: 23.1 µM [falling, partial curve, poor fit]

SMILES: CC(NS(=O)(=O)c1ccccc1)C(c1cccs1)N1CCOCC1 (configuration not stated)
- AC50 [1]: 32.6 µM [rising, single point]

SMILES: COc1ccc(CCn2ccc(O)c(Cc3ccc(Cl)cc3)c2=O)cc1OC
- AC50 [1]: 25.1 µM [falling, single point]

SMILES: Cn1c(=O)c2ncn(CC(=O)O)c2n(C)c1=O
- AC50 [1]: 35.5 µM [rising, single point]

SMILES: CN1CCC(N(C)C(=O)c2ccc(Cl)c(S(=O)(=O)Nc3cc(Cl)ccc3Cl)c2)CC1
- AC50 [1]: 25.9 µM [falling, single point]

SMILES: O=C(CSc1nnc(Cc2cccs2)n1Cc1ccco1)Nc1cc(Cl)cc(Cl)c1
- AC50 [1]: 17.8 µM [falling, single point]

SMILES: CN(C)S(=O)(=O)c1cccc(C(=O)OCC(=O)c2c(N)n(C)c(=O)n(C)c2=O)c1
- AC50 [1]: 5.01 µM [rising, partial curve, poor fit]

SMILES: O=[N+]([O-])c1ccc(S(=O)(=O)Nc2ccc(-c3csc(-c4ccccc4)n3)cc2)cc1
- AC50 [1]: 14.1 µM [falling, partial curve]

SMILES: Cc1cccc(/C=C/C(=O)c2cc(Br)ccc(=O)c2O)c1
- AC50 [1]: 13 µM [falling, partial curve, poor fit]

SMILES: C=CCOC(=O)C(C#N)c1nc2ccccc2nc1N1CCC(C(=O)OCC)CC1 (configuration not stated)
- AC50 [1]: 18.4 µM [falling, single point]

SMILES: CCOc1ccccc1C(=O)Nc1cc(C(=O)NCCc2ccccc2)ccc1Cl
- AC50 [1]: 3.16 µM [rising, single point]
